For assay [1], the target named is Trrap (mouse (endogenous in mouse retina)) (UniProt Q80YV3). The experiment in a line: co-IP; whole retinal extracts (two retinas) of 4-wk-old or 10-wk-old R7N or R7E mice; IP with anti-ATXN7, anti-TRRAP or anti-SPT3 antibody on protein A-Sepharose beads; Western blot of the immunopurified fractions. In general terms: In western blotting, separated proteins are transferred to a membrane and probed.

Sequences of proteins named here, by UniProt entry; tags and fusion partners are left off. A change or cut given only in a name is not applied to a line headed by its entry.
UniProt Q80YV3: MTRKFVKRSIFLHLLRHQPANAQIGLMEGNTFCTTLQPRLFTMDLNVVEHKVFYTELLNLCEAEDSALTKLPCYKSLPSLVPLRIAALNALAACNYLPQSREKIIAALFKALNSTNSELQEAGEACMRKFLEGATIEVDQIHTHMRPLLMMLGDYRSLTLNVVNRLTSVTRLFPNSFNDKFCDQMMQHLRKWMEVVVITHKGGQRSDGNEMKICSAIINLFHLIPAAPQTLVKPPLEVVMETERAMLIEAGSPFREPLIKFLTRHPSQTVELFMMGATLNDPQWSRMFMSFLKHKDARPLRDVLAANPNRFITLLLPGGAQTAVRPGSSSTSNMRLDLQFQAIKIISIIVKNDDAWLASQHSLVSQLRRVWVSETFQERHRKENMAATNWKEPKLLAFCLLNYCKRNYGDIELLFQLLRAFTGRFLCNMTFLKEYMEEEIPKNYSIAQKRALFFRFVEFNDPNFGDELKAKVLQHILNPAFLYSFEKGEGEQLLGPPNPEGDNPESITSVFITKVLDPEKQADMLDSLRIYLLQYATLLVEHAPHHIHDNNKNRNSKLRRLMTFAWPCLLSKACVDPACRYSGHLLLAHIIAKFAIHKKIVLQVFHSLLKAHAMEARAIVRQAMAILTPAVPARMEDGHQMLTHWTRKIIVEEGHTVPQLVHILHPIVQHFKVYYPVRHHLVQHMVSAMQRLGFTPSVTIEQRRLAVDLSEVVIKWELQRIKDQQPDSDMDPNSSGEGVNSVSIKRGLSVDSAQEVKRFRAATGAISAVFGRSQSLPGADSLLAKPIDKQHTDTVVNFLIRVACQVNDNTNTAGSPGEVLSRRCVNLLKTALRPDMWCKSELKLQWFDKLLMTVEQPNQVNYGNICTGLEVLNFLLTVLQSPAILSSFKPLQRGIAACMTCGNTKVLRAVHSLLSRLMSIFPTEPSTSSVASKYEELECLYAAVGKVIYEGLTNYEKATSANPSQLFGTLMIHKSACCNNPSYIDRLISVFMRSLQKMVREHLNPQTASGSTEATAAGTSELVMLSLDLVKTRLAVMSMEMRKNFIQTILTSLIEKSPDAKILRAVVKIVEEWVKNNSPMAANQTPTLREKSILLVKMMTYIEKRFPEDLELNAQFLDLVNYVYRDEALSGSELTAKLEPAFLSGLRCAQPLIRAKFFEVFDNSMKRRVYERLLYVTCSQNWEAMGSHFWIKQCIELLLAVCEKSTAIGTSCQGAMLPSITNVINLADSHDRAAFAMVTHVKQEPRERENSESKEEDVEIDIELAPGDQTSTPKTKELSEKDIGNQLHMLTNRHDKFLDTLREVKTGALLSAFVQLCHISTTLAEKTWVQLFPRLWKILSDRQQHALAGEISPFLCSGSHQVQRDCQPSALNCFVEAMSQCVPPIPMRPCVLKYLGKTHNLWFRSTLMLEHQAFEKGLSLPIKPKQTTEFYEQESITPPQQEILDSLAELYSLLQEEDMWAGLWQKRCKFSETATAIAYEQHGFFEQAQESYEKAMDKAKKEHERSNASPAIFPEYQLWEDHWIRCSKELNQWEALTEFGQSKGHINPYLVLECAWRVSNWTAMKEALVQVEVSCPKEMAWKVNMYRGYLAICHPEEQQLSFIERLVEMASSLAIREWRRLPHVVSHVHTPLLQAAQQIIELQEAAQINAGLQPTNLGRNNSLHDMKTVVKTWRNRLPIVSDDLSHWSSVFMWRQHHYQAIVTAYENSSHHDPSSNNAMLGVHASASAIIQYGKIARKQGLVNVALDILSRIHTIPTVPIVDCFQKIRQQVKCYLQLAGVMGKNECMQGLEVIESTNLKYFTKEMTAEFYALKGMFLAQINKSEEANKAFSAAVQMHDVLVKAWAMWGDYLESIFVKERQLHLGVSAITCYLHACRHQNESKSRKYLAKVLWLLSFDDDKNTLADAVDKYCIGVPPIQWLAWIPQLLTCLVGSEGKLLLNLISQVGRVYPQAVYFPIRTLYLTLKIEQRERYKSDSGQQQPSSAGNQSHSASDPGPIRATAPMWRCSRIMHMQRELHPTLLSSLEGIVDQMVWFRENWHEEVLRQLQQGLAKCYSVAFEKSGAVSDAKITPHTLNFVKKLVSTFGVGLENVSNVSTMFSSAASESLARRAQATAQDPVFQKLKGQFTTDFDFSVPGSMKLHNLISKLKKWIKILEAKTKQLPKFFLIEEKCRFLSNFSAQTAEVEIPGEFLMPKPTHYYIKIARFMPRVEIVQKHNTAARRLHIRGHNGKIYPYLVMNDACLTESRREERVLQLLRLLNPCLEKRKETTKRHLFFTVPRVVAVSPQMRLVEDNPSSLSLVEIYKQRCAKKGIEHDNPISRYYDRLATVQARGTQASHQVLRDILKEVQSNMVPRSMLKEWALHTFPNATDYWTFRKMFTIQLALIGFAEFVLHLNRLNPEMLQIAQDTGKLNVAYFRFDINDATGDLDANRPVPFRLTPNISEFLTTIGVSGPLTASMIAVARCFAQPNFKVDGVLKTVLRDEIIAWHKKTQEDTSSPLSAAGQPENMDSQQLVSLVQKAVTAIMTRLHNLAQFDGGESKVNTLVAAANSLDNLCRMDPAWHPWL
UniProt O15265: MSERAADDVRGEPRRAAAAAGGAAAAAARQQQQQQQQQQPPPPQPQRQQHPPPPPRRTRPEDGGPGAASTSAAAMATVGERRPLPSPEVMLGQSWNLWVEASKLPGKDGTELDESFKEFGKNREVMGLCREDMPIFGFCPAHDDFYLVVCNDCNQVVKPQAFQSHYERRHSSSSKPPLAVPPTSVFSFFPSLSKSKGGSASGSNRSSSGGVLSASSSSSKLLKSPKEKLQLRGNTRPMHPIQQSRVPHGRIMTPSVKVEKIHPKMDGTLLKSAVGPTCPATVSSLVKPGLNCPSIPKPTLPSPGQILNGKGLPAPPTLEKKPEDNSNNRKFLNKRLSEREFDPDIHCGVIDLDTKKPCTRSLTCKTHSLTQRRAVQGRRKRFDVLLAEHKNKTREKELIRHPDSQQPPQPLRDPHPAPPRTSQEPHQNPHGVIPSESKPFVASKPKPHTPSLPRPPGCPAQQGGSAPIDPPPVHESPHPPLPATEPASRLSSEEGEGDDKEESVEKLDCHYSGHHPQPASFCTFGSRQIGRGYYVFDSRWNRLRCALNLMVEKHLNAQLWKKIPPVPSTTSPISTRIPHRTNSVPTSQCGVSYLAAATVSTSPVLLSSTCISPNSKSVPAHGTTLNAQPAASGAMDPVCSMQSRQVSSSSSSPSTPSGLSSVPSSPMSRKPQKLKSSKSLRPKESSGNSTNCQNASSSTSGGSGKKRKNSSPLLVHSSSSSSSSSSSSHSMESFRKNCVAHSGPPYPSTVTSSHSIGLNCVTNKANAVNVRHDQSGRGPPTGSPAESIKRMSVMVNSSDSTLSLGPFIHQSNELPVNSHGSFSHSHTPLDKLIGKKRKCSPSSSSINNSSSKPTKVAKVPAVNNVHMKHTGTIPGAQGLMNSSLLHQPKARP

Assay [2] addresses T1, Spt3 (mouse (endogenous in mouse retina)) (UniProt Q8BVY4).
T1 sequence: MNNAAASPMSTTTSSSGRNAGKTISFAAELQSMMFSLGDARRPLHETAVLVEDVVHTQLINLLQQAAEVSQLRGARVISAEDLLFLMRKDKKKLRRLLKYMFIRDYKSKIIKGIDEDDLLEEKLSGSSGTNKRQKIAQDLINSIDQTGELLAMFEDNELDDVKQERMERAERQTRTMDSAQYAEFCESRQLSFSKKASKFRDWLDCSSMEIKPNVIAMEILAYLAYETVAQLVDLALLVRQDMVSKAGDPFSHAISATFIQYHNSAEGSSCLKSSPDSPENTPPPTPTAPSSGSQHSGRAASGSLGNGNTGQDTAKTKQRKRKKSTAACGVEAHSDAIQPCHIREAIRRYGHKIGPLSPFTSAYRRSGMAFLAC
Described as above.

No constants are given. Whether binding was seen depends on the method and setting. In cells and extracts the contact can be indirect. Binding calls can cover weak binding; strength is not graded here.

“normal (10Q) ataxin-7 (ATXN7) (from UniProt O15265 1-892)”: the binding result in assay [1] is recorded as “binds”. Take “mutant (90Q) polyQ-expanded ataxin-7 (ATXN7) (from UniProt O15265)”: the binding entry in assay [2] and in assay [1] was “binds” throughout.

Source of the values: article PMC1382020.
